Test system: GS-CHO cells
Experiment: Spike-in of single purified metabolites into Medium A, growth of GS-CHO cells monitored 5 or 6 days
Format: cell-based, Chinese hamster
Settings: metabolite alone at concentrations of 1 mM or lower
Protocol: GS-CHO cells producing a recombinant antibody were inoculated at low viable cell densities (0.1E6 cells/mL) in various conditions in 5 ml volume, 6-well plate cultures. […] The pH of the Medium A, spiked-in with any one of the nine metabolites or any combination of the nine metabolites, was adjusted to 7 before inoculating the cells (on day 0).
For indolelactate, the stock solution (500 mM) was prepared in DMSO. […] All the conditions were run in duplicates or triplicates. Growth of the cells in above described conditions was monitored for 5 or 6 days.

## O=C(O)C(=O)Cc1ccc(O)cc1 [4-hydroxyphenylpyruvate]
  effect on growth of cells: potent negative effect on growth of cells

Reference: patent publication US12584113B2, “Method of cell culture” (Pfizer Inc., priority 2014, dated 2026)
